Source: PubChem BioAssay AID445 (National Center for Advancing Translational Sciences (NCATS), 2006)
The other results are listed elsewhere or left out. These are further read-outs of the screen, such as a control signal, another cell line or another target. No call is given for them. The list favours compounds with an active or inconclusive main result. The note in brackets gives the kind of curve behind each potency; many fits are weak.

Test: IkB Signaling
Settings: ABC-DLBCL IkBa-CBG/CBR dual luciferase ratio (green luciferase fused to IkBa over red control in OCI-Ly3 lymphoma cells), 4 h
Outline: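 Luminescence ratio of IκBα-fused green versus native red beetle luciferase in OCI-Ly3 cells, 4 h post-doxycycline with compound; red signal alone, scaled from basal (0%) to zero light (-100%), flagged nonspecific or cytotoxic effects.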

[1] = measured here: control luc red channel unless noted

For `CCCCC(=O)Nc1cccc(NC(=O)c2ccc3c(c2)OCO3)c1`, the AC50 [1] was 15.8 µM [falling, partial curve].

In the case of `CCOc1ccc(N2CC(c3nc4ccccc4n3CCCOc3ccccc3)CC2=O)cc1` (stereo not drawn), the AC50 [1] is reported as 25.1 µM [falling, partial curve].

For `Cc1c(C(=O)NCC(c2ccc(Cl)cc2)N2CCOCC2)oc2ccccc12` (stereo not drawn), the AC50 [1] was 31.6 µM [falling, partial curve].

In the case of `CCCCOC(=O)c1ccc(NC(=O)c2cc3c(=O)n4cccc(C)c4nc3s2)cc1`, the AC50 [1] is reported as 15.8 µM [falling, partial curve].

In the case of `Cc1cc2nc(-c3ccc(SCC(=O)N4CCN(C(=O)c5ccco5)CC4)nc3)[nH]c2cc1C`, the AC50 [1] is reported as 10 µM [falling, partial curve].

With `CC(C)(C)OC(=O)N1CCC(c2c(C(=O)NCCN3CCc4ccccc4C3)cnn2-c2ccc(F)cc2F)CC1` the AC50 [1] was 39.8 µM [falling, single point].

In the case of `CCC1CCCCN1Cc1ccc(CNS(=O)(=O)c2ccc3c(c2)oc(=O)n3C)o1` (stereo not drawn), the AC50 [1] is reported as 1.26 µM [falling, full curve].

In the case of `Cc1ccc(NC(=O)CCn2c(=O)c3cccn3c3ccccc32)cc1C`, the AC50 [1] is reported as 25.1 µM [falling, single point].

With `CCC(=O)N1CCc2cc(Br)cc(S(=O)(=O)CCC(=O)NCCc3cccc(C)c3)c21` the AC50 [1] was 1.58 µM [rising, partial curve].

For `CC(C)c1nnc(SCC(=O)NCc2ccco2)n1C`, the AC50 [1] was 20 µM [rising, single point] [measured here: IkB-luc green channel].

With `Cc1ccccc1OCC(=O)Nc1ccc2nc(SCC(N)=O)sc2c1` the AC50 [1] was 31.6 µM [falling, partial curve].

In the case of `Cc1ccc(C2CC(C(F)(F)F)n3ncc(C(=O)NCc4ccco4)c3N2)cc1` (stereo not drawn), the AC50 [1] is reported as 12.6 µM [falling, partial curve].

With `CCOC(=O)c1ccc(NC(=O)Nc2ccc(OC)c(OC)c2)cc1` the AC50 [1] was 12.6 µM [falling, partial curve].

With `O=C(NCCOC(=O)c1ccc(S(=O)(=O)N2CCOCC2)cc1)c1cccnc1` the AC50 [1] was 3.16 µM [rising, partial curve] [measured here: IkB-luc green channel].

With `COc1ccccc1N1CCN(Cc2nnc(-c3ccccc3C)o2)CC1` the AC50 [1] was 31.6 µM [falling, single point].

In the case of `O=S(=O)(Nc1ccc(C(F)(F)F)cc1)c1ccc2c(c1)OCCO2`, the AC50 [1] is reported as 15.8 µM [falling, partial curve].

For `O=C(Cn1ncn2c(cc3ccccc32)c1=O)NCc1ccco1`, the AC50 (measured here: IkB-luc green channel) was 31.6 µM [rising, single point] and the AC50 (measured here: control luc red channel) was 31.6 µM [falling, single point].

In the case of `O=C(NCCCc1nc2ccccc2n1Cc1cccc(Cl)c1)C1CCCCC1`, the AC50 [1] is reported as 15.8 µM [falling, partial curve].

In the case of `O=C(c1ccc2c(c1)N(Cc1ccc(Cl)cc1)C(=O)c1ccccc1S2=O)N1CCC(Cc2ccccc2)CC1` (stereo not drawn), the AC50 [1] is reported as 3.98 µM [falling, partial curve].

In the case of `COc1ccc(NC(=O)Cn2nc(C(F)(F)F)c3c2CCCC3)cc1OC`, the AC50 [1] is reported as 31.6 µM [falling, partial curve, poor fit].

In the case of `Cc1cccc(N2CCN(C(=O)c3ccc4c(Cl)c5c(nc4c3)CCCC5)CC2)c1C`, the AC50 [1] is reported as 10 µM [falling, partial curve].

For `COc1cc(NC(=O)c2nc3ccccc3n(C)c2=O)cc(OC)c1OC`, the AC50 [1] was 7.94 µM [falling, full curve].

With `OC1C=CSc2nc3ccccc3n21` (stereo not drawn) the AC50 [1] was 25.1 µM [rising, partial curve] [measured here: IkB-luc green channel].

With `Cc1ccc(CCNC(=O)CCS(=O)(=O)c2cc3c(cc2Cl)NC(=O)CO3)cc1` the AC50 [1] was 25.1 µM [falling, partial curve, poor fit].

In the case of `O=C(OCc1cc(=O)n2nc(C3CC3)sc2n1)c1ccccc1Cl`, the AC50 [1] is reported as 15.8 µM [falling, partial curve].

For `CC(=O)c1cccc(NC(=O)c2cc(C)nc3c2c(C)nn3-c2cccc(Cl)c2C)c1`, the AC50 [1] was 5.01 µM [falling, partial curve, poor fit].

With `COC(=O)c1c(-c2ccc(Cl)cc2)noc1N1CCN(c2ccc(F)cc2)CC1` the AC50 [1] was 5.01 µM [falling, full curve].

In the case of `Cc1ccc(-c2nc(-c3cc4cccc(OCc5ccccc5F)c4oc3=O)no2)cc1`, the AC50 [1] is reported as 25.1 µM [falling, single point].

In the case of `N#C/C(=C(/O)CSc1nnc(Cc2cccs2)n1C1CCCCC1)c1nc2ccccc2[nH]1`, the AC50 [1] is reported as 10 µM [falling, partial curve].

In the case of `Cc1ccc(NC(=O)Cn2c(=O)n(Cc3ccc(C(=O)NCc4ccc5c(c4)OCO5)cc3)c(=O)c3ccccc32)cc1`, the AC50 [1] is reported as 0.00631 µM [falling, full curve, poor fit].

For `CC(C)c1cc(C(=O)NCc2ccccc2)no1`, the AC50 [1] was 39.8 µM [falling, single point].

In the case of `CCOc1ccc(CNC(=O)CCS(=O)(=O)c2ccc3c(c2)oc(=O)n3C)cc1`, the AC50 [1] is reported as 25.1 µM [falling, partial curve, poor fit].

For `COC(=O)c1ccc(NC(=O)C(=O)NCC(c2cccnc2)N2CCc3ccccc32)cc1` (stereo not drawn), the AC50 [1] was 25.1 µM [falling, single point].

For `Cc1c(NC(=O)c2sc3ccccc3c2Cl)cccc1-c1nc2ccccc2o1`, the AC50 [1] was 1 µM [falling, partial curve].

In the case of `Cc1c(Cl)cccc1NC(=O)Cn1nnc(-c2nc(-c3ccccc3)no2)c1N`, the AC50 [1] is reported as 15.8 µM [falling, partial curve, poor fit].

In the case of `C[C@@H]1C[C@@H]2[C@H]3CCC4=CC(=O)C=C[C@]4(C)[C@]3(F)[C@@H](O)C[C@]2(C)[C@@]1(O)C(=O)CO`, the AC50 [1] is reported as 2.51 nM [rising, full curve, poor fit] [measured here: IkB-luc green channel].

In the case of `O=C(NC1CCCC1)c1c[nH]c2ccc(F)cc2c1=O`, the AC50 [1] is reported as 3.16 µM [rising, partial curve].
